In test [1] the target is eukaryotic translation initiation factor 4B (EIF4B) (human (endogenous in LN229)) (UniProt P23588). As to the kind of experiment: co-IP; immunoprecipitation from LN229 cells with an anti-EIF4B antibody; hnRNPK detected by western blotting.
Test [2] addresses EIF4B recombinant protein (UniProt P23588). The test can be described thus: far-Western, overlay or dot blot; EIF4B recombinant protein (10 ug) on 10% SDS-PAGE, transferred to PVDF, denatured and renatured in AC buffer (100 mM NaCl, 20 mM Tris-HCl pH 7.6, 0.5 mM EDTA, 10% glycerol, 0.1% Tween-20, 2% non-fat milk, 1 mM DTT); membrane incubated with 1 ug/ml recombinant hnRNPK at 4 C overnight; detected with anti-hnRNPK antibody; BSA loaded as negative control; both purified.

No constants are given. Whether binding was seen depends on the method and setting. For some assays here: Binding seen in cells or lysates may run through a third protein. Some results given as binding are weak or reduced against the parent protein; the word gives no strength.

hnRNPK (from UniProt P61978 1-463): in test [1], the binding entry is reported as “binds”.

Take “recombinant hnRNPK protein (from UniProt P61978 1-463)”: the binding entry in test [2] is “binds”.
